The numbers were not newly measured in publication PMC4718952, “A simple nonradioactive method for the determination of the binding affinities of antibodies induced by hapten bioconjugates for drugs of abuse” (Analytical and Bioanalytical Chemistry, 2015), which cites them from elsewhere.

For this data set, the system named is plasma proteins. The following applies: neat plasma/sera; cited from earlier work.

Consider `CN1CC[C@]23c4c5ccc(O)c4O[C@H]2[C@@H](O)C=C[C@H]3[C@H]1C5` [morphine], for which the plasma binding is given as around 35%.
